Measured values reported in PubChem BioAssay AID2685 (National Center for Advancing Translational Sciences (NCATS), 2010).
This is one part of the list. Shown are side measurements of this screen, not its main read-out; they come without a call. Most of these compounds were active or inconclusive in the main read-out, so they are no random draw. Potencies come from curve fits of mixed quality, noted in brackets.

Assay: qHTS Assay for Lipid Storage Modulators in Drosophila S3 Cells;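 as to cell number change: cells counted by Cell Tracker Red CMTPX staining in the red channel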
Conditions: BODIPY lipid droplet fluorescence, 18-24 h; for cell number change: measured here: cell count max response, cells fed with added oleic acid
Outline: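 Laser-scanning cytometry quantifies lipid droplet accumulation (500–530 nm total intensity; droplet/cell object ratio) in oleic acid-fed (400 uM added) Drosophila S3 cells treated with a concentration series. 20 uM Triacsin C defined 100% inhibition.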

[1] = measured here: lipid fluorescence (Fed channel) AC50, cells fed with added oleic acid
[2] = measured here: cell number channel AC50, cells fed with added oleic acid

Structure (SMILES)	cell number change [%]	AC50 [1]	AC50 [2]
CN(C)c1nc(N)nc(CSc2nnnn2-c2ccc(C(=O)O)cc2)n1	11.6	20.6 µM [falling, single point]	–
Cc1cccc(CN2CCNC2=O)c1	0.101	6.51 µM [falling, single point]	–
COc1cc(/C=N/NC(=O)C(N)=O)ccc1OC(=O)c1cccs1	–	5.8 µM [rising, partial curve]	–
O=C(NCc1cn2ccccc2n1)c1ccccc1	25.4	6.51 µM [rising, single point]	–
O=C(CSc1nc(O)cc(=O)n1-c1ccccc1)Nc1ccc(Br)cn1	11.5	2.59 µM [falling, partial curve]	6.51 µM [falling, single point]
Oc1ccccc1N1CCN(c2nc(-c3cccs3)nc3ccccc23)CC1	6.85	0.00461 µM [rising, full curve, poor fit]	–
COc1cccc(C(=O)Nc2ccc(NC(=O)C3CC3)nc2)c1	18.5	0.58 µM [falling, single point]	–
CCn1cc(C(=O)N2CCN(c3ccccc3)CC2)c(=O)c2cc(S(=O)(=O)N3CCOCC3)ccc21	6.19	29.1 µM [rising, single point]	–
Cc1nn(C(C)(C)C)c(C)c1/C=N/OC(=O)Nc1ccc(Cl)cc1	-27	10.3 µM [falling, partial curve, poor fit]	–
O=C(Nc1cccc(-c2nc3ccccc3[nH]2)c1)c1ccco1	-5.35	1.3 µM [rising, full curve]	–
Cc1ccc(S(=O)(=O)NCC(=O)OCC(=O)Nc2cccc(S(=O)(=O)NC3=NCCCCC3)c2)cc1C	13.3	–	–
O=C(NCc1cccnc1)c1ccccc1-c1ccccc1	0.465	–	–
Cc1ccc(C(=O)NCCn2cc(SCC(=O)Nc3nnc(C)s3)c3ccccc32)cc1	-23.4	3.26 µM [rising, full curve, poor fit]	–
Cc1cc2c(cc1C)CSC(c1ccccc1OC(=O)C(C)(C)C)SC2	120	–	29.1 µM [rising, partial curve, poor fit]
CCOC(=O)/C(C#N)=C/c1ccc(OCC(=O)Nc2ccc(C)c(C)c2)c(OC)c1	10.5	1.84 µM [rising, partial curve]	–
C=CCn1c(C)nnc1SCC(=O)Nc1nc(C)c(C(=O)N(C)C)s1	24.6	–	–
CCCCOc1ccc(-c2csc(N)n2)cc1[N+](=O)[O-]	-13.7	29.1 µM [rising, single point]	–
COc1ccc(OC)c(-n2nnnc2SCC(=O)NCc2ccc3c(c2)OCO3)c1	28.6	1.46 µM [rising, full curve]	0.651 µM [rising, single point]
O=C(Nc1cccc(Cl)c1)c1nc[nH]c1C(=O)N1CCc2ccccc2C1	-53.4	9.2 µM [falling, single point]	4.11 µM [falling, single point]
COc1ccc(OC)c(C(=O)N2CCC(CCC(=O)NC3CC3)CC2)c1	6.27	6.51 µM [rising, single point]	–

An excerpt from above in order of number of heavy atoms, largest number first.
Structure (SMILES)	cell number change [%]	AC50 [1]	AC50 [2]
C=CCn1c(C)nnc1SCC(=O)Nc1nc(C)c(C(=O)N(C)C)s1	24.6	–	–
CCCCOc1ccc(-c2csc(N)n2)cc1[N+](=O)[O-]	-13.7	29.1 µM [rising, single point]	–
O=C(NCc1cn2ccccc2n1)c1ccccc1	25.4	6.51 µM [rising, single point]	–

The list continues:

Structure (SMILES)	cell number change [%]	AC50 [1]	AC50 [2]
CCOc1ccc(CN2CCN(CCCn3cccn3)CC2CCO)cc1 (stereo not drawn)	18.9	0.00517 µM [rising, full curve, poor fit]	–
CCS(=O)(=O)N1CCN(C(=O)c2ccccc2)CC1	40.4	–	16.4 µM [rising, single point]
CC(=O)c1cccc(N(CC(=O)NCCc2ccccc2)C(=O)c2csnn2)c1	0.427	–	–
CCOc1ccccc1NC(=O)c1ccc(S(=O)(=O)N2CCCCC2)cc1	4.58	–	–
S=c1[nH]nc(C2CCCCC2)n1/N=C/c1ccc(Cl)cc1	13.9	6.51 µM [falling, single point]	–
COc1ccc(N2CC(C(=O)NNC(=O)c3ccc(Br)cc3)CC2=O)c(OC)c1 (stereo not drawn)	0.442	0.731 µM [falling, full curve]	0.651 µM [falling, full curve, poor fit]
COc1cc2c(cc1OC)C(C(=O)Nc1ccccn1)C(c1cccnc1)N(C)C2=O (stereo not drawn)	-16.7	6.51 µM [falling, single point]	–
CCOC(=O)c1cc(CC)sc1NC(=O)COC	-19.5	–	–
O=C(NCCc1ccc(F)cc1)Nc1ccc([N+](=O)[O-])cc1	–	20.6 µM [falling, partial curve]	–
CCOC(=O)C1CCN(S(=O)(=O)c2ccc3c4c(cccc24)C(=O)N3)CC1	9.92	–	1.3 µM [falling, partial curve]
COCCN(Cc1ccc(F)cc1)C(=O)c1cc2ccccc2oc1=O	3.86	6.51 µM [rising, single point]	–
Cc1oc(-c2ccc(Cl)cc2)nc1CS(=O)CC(=O)NCc1ccccn1 (stereo not drawn)	6.6	14.6 µM [rising, partial curve]	–
CC(C)C[C@@]12C(=O)N(c3cccc(F)c3)C(=O)N1[C@H](c1ccc(F)cc1)[C@@H]1C(=O)N(C3CCCCC3)C(=O)[C@@H]12	-21.7	29.1 µM [rising, single point]	–
Cc1nc(NC(=O)CSc2nnc(-c3ccccc3)c(-c3ccccc3)n2)c(Cl)cc1Cl	-37.7	13 µM [falling, partial curve]	14.6 µM [falling, partial curve, poor fit]
CC(=O)N1c2ccc(S(=O)(=O)NCC3CCC(C(=O)NC4CCCCC4C)CC3)cc2CC1C (stereo not drawn)	0.382	0.461 µM [falling, single point]	–
COc1ccc(Cl)cc1-c1n[nH]c(=S)n1C1CCCCC1	10.1	0.517 µM [rising, single point]	–
CCOC(=O)Cc1csc(NC(=O)CCc2ccc(S(=O)(=O)N3CCOCC3)cc2)n1	-20.7	6.51 µM [rising, single point]	–
CC(C)c1ccc(S(=O)(=O)NC2CCCC2)cc1	36.2	2.06 µM [rising, partial curve, poor fit]	3.66 µM [rising, full curve, poor fit]
COc1ccc2c(c1)sc(N)[n+]2Cc1cc(C)cc2cccnc12	-26.7	10.3 µM [falling, partial curve, poor fit]	–
COc1ccc2c(=O)cc(C(=O)O)oc2c1	34.4	–	25.9 µM [rising, single point]

Structure (SMILES)	cell number change [%]	AC50 [1]	AC50 [2]
CCc1ccc(C(C)(O)C(CN2CCOCC2)c2ccccc2)cc1 (stereo not drawn)	-0.59	0.0058 µM [rising, full curve, poor fit]	–
O=C1C(Nc2ccccc2)=C/C(=N/S(=O)(=O)c2cccs2)c2ccccc21	-76.9	8.2 µM [falling, partial curve]	13 µM [falling, partial curve, poor fit]
Cc1nc(-c2ccc(Cl)cc2)sc1C1(C)CC(c2ccccc2F)=NO1 (stereo not drawn)	0.301	18.4 µM [rising, single point]	–
CCOC(=O)N1CCN(Cc2cn[nH]c2-c2cc3ccccc3o2)CC1	8.27	29.1 µM [rising, partial curve, poor fit]	–
Cc1nc2c([nH]c3ccc(Br)cc32)s1	–	–	2.59 µM [rising, partial curve]
CC1CCCC(C)N1/N=C/c1ccc([N+](=O)[O-])cc1 (stereo not drawn)	-41.1	2.59 µM [falling, full curve]	18.4 µM [falling, partial curve]
Oc1ccccc1CNCc1ccccc1	9.83	29.1 µM [rising, single point]	–
Cc1ccc(C)c(Sc2ccc(NC(=O)CCl)cc2)c1	-42.3	7.31 µM [falling, partial curve]	32.6 µM [falling, single point]
COc1ccc(Cl)cc1NC(=O)N1CCN(CCc2ccccc2)CC1	–	2.31 µM [rising, partial curve]	–
CCN(Cc1nc2ccccc2c(=O)[nH]1)Cc1nc2ccsc2c(=O)[nH]1	-37.3	–	–
COc1ccc(/C=N/NC(=O)CCC(=O)Nc2ccc(F)cc2)c(OC)c1	6.45	29.1 µM [rising, single point]	–
CCC(=O)Nc1nc2ccccc2n1Cc1ccc(Cl)cc1	-23.3	3.66 µM [falling, single point]	–
OCCNCCCCOc1ccccc1F	-24.9	0.58 µM [falling, single point]	–
Cn1cc(S(=O)(=O)Nc2cccc(F)c2)c(=O)n(C)c1=O	-18.8	6.51 µM [falling, single point]	–
CCCn1c(N)c(CC)c(=O)[nH]c1=O	-16	32.6 µM [falling, partial curve, poor fit]	–
CCCN1CCN(C(=O)c2cc(COc3ccc(F)c(F)c3)on2)CC1	–	4.11 µM [falling, single point]	–
COc1cccc(OCc2nc3ccccc3c(=O)n2N)c1	-5.61	0.82 µM [rising, partial curve]	–
Cc1ccccc1CN1C2=NCCN2c2ccccc21	10.8	0.116 µM [rising, full curve, poor fit]	–
Nc1ccccc1SCC(=O)Nc1nc(-c2ccccc2)cs1	-18.3	–	0.731 µM [falling, full curve, poor fit]
CCCc1nnc(NC(=O)CSc2ncn[nH]2)s1	-29.7	2.59 µM [falling, single point]	1.84 µM [falling, full curve, poor fit]
